PubChem BioAssay AID1259317 | Drosophila RNAi Screening Center – 2017
In all, the deposit lists 418 reagents; below is a random part of them. Of all reagents, 34 (8.1%) were called active. 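Hits are two-sided: raised or lowered ATP both count; higher z-score means more ATP and more surviving cells.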 Not stated in the record: the amount of reagent.

Aim: 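Knockdowns that alter fly cell sensitivity to manganese chloride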 (primary screen)
Cells: Drosophila S2R+ cells
Knock-down reagent: long dsRNA against Drosophila genes
Duration: 5 days (4 days knockdown, then 1 day metal)
Conditions: manganese chloride added to 15 mM final for 1 day
Measured: 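Viability read as luminescent ATP after knockdown plus a day in 15 mM manganese chloride; z-score of the mean of three replicate plates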
Reading the numbers: mean z-score, 3 replicates: higher = more ATP, more surviving cells under manganese
Hit rule: 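Active calls require an absolute mean z-score greater than 1.5, in either direction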
Calls: active = hit: z-score beyond ±1.5 (ATP up or down); inactive = not a hit

no.	predicted target	dsRNA	mean z-score, 3 replicates	call
1	mei-9 (GeneID 31373)	DRSC18792	0.0411	inactive
2	Lerp (GeneID 43223)	DRSC14751	1.04	inactive
3	Lerp (GeneID 43223)	DRSC16030	0.59	inactive
4	Lerp (GeneID 43223)	DRSC16031	0.0033	inactive
5	CatB (GeneID 34198)	DRSC03194	-0.442	inactive
6	CatB (GeneID 34198)	DRSC24516	-0.545	inactive
7	CatB (GeneID 34198)	DRSC38069	-0.51	inactive
8	Vps13B (GeneID 43550)	DRSC15060	2.29	active
9	Vps13B (GeneID 43550)	DRSC34131	-1.08	inactive
10	Ctr1A (GeneID 31601)	DRSC18336	-1.95	active
11	Ctr1A (GeneID 31601)	DRSC40310	-1.42	inactive
12	Ctr1A (GeneID 31601)	DRSC40902	-1.15	inactive
13	CtsF (GeneID 40628)	DRSC12056	-0.514	inactive
14	CtsF (GeneID 40628)	DRSC12195	2.51	active
15	CtsF (GeneID 40628)	DRSC12196	0.0799	inactive
16	CG6638 (GeneID 38979)	DRSC10680	2.16	active
17	CG6638 (GeneID 38979)	DRSC24246	1.46	inactive
18	CROT (GeneID 43332)	DRSC27733	0.409	inactive
19	CROT (GeneID 43332)	DRSC32670	-0.232	inactive
20	CROT (GeneID 43332)	DRSC32671	-0.995	inactive
21	Gnptab (GeneID 35943)	DRSC07057	-0.133	inactive
22	LManIII (GeneID 34203)	DRSC03221	2.09	active
23	LManIII (GeneID 34203)	DRSC29001	-0.372	inactive
24	LManIII (GeneID 34203)	DRSC35602	1.11	inactive
25	Pex11ab (GeneID 36758)	DRSC07145	0.609	inactive
26	Mpcp2 (GeneID 39587)	DRSC11226	-0.928	inactive
27	Mpcp2 (GeneID 39587)	DRSC41005	-1.06	inactive
28	CG32191 (GeneID 317903)	DRSC10522	-1.12	inactive
29	cathD (GeneID 45268)	DRSC07588	0.78	inactive

Entries above whose gene name begins with L or l (6):
predicted target	dsRNA	mean z-score, 3 replicates	call
Lerp (GeneID 43223)	DRSC14751	1.04	inactive
Lerp (GeneID 43223)	DRSC16030	0.59	inactive
Lerp (GeneID 43223)	DRSC16031	0.0033	inactive
LManIII (GeneID 34203)	DRSC03221	2.09	active
LManIII (GeneID 34203)	DRSC29001	-0.372	inactive
LManIII (GeneID 34203)	DRSC35602	1.11	inactive

Additional results:
no.	predicted target	dsRNA	mean z-score, 3 replicates	call
30	Ids (GeneID 38423)	DRSC08222	0.283	inactive
31	CG4860 (GeneID 41480)	DRSC21755	-0.569	inactive
32	Ect3 (GeneID 41457)	DRSC15462	-0.862	inactive
33	Ect3 (GeneID 41457)	DRSC25392	-0.117	inactive
34	Ect3 (GeneID 41457)	DRSC35713	-0.283	inactive
35	CG4586 (GeneID 31641)	DRSC18373	-0.682	inactive
36	CG4586 (GeneID 31641)	DRSC34798	-1.02	inactive
37	Pex2 (GeneID 38941)	DRSC10770	-0.209	inactive
38	Pex2 (GeneID 38941)	DRSC38311	-0.0276	inactive
39	Parp1 (GeneID 3355109)	DRSC07725	0.19	inactive
40	Parp1 (GeneID 3355109)	DRSC07778	0.454	inactive
41	Parp1 (GeneID 3355109)	DRSC07780	-0.329	inactive
42	Vps13 (GeneID 35693)	DRSC06817	0.00435	inactive
43	Vps13 (GeneID 35693)	DRSC29275	-0.325	inactive
44	Vps13 (GeneID 35693)	DRSC35042	-0.908	inactive
45	Npc2a (GeneID 33374)	DRSC00698	-0.874	inactive
